{"sequences": {"note": "Sequences of proteins named here, by UniProt entry; tags and fusion partners are left off. A change or cut given only in a name is not applied to a line headed by its entry.", "UniProt Q61060": "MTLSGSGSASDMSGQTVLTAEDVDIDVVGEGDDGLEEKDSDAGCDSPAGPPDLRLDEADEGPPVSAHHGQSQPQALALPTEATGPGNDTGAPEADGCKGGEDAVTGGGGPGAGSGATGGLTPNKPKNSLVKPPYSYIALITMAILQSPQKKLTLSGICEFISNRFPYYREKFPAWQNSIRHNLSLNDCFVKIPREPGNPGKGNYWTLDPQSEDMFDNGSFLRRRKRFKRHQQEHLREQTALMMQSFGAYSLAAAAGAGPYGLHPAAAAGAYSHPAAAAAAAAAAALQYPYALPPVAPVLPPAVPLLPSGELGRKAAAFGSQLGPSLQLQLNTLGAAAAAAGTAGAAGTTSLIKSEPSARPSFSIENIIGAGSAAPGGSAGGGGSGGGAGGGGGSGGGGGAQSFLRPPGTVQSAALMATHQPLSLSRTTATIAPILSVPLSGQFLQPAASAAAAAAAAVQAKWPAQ"}, "source": "paper doi:10.1101/2021.05.01.442081", "key": {"[1]": {"biological_target": "GST-FOXD3 M2 FVK>VAM (Mus musculus) (UniProt Q61060)", "assay": "EMSA", "conditions": "0-5 uM protein, 50 nM DNA, residues 1-465"}, "[2]": {"biological_target": "GST-FOXD3 M1 YSY>RAD (Mus musculus) (UniProt Q61060)", "assay": "EMSA", "conditions": "0-5 uM protein, 50 nM DNA, residues 1-465"}}, "note": "The exact form of at least one protein or probe is not confirmed. No signal at the amounts used counts as a negative."}
{"sequence": "CTGAAAATCATGGAAAATGAGAAACATCCACTTGA (double strand) [MSR]", "values": [{"measurement": "binding result", "setting": "[1]", "value": "no binding"}, {"measurement": "binding result", "setting": "[2]", "value": "no binding"}]}
